Measurements reported in PubChem BioAssay AID1159578 (Peter MacCallum Cancer Centre, 2015).
In all, the deposit lists about 18,000 reagents; this is a part drawn at random. In the full data, about 1,030 (5.7%) were called active. 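Inactive calls also include pools with fewer than 3300 nuclei, whose migration was not assessed.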 Raw values are not corrected between plates. Entries without a mark were called inactive. No sequences are given here.

Assay: 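Knock-downs that alter how fast lymphatic endothelial cells migrate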 (primary screen)
Cell system: human lymphatic endothelial cells
Knock-down reagent: siRNA pool against human genes, 40 nM
Duration: 48 h after transfection
Read-out: 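Cells stained with dye and imaged after a scratch; covered wound area and nuclei counted, duplicates averaged, migration set against mock wells and turned into a robust z-score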
Scale: migration robust z-score: higher = faster migration into the scratch; migration relative to mock: higher = more scratch area covered than mock; nuclei per well: higher = more cells in the well
Call rule: 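Pools averaging fewer than 3300 nuclei are never called; remaining pools count as changed when migration robust z lies outside -2 to 2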
Meaning of the calls: active = migration changed; inactive = no migration change, or too few cells

Gene	migration robust z-score	migration class with cell-count check	migration relative to mock	nuclei per well, duplicate mean
ZNF18 (zinc finger protein 18)	1.15	migration z between -2 and 2; enough cells	1.18	6756
ACOT1 (acyl-CoA thioesterase 1)	0.78	migration z between -2 and 2; enough cells	0.96	6614
WDR62 (WD repeat domain 62)	0.59	migration z between -2 and 2; enough cells	1.04	5692
SNAPIN (SNAP associated protein)	-0.02	migration z between -2 and 2; enough cells	0.88	4940
IFNA14 (interferon alpha 14)	-1.66	migration z between -2 and 2; enough cells	0.46	5945
MEF2C (myocyte enhancer factor 2C)	0.24	migration z between -2 and 2; enough cells	0.85	6728
IL36R (interleukin 36 receptor)	0.65	migration z between -2 and 2; enough cells	0.93	5822
DENND5A (DENN domain containing 5A)	-0.29	migration z between -2 and 2; enough cells	0.81	5726
RPIA (ribose 5-phosphate isomerase A)	-0.97	migration z between -2 and 2; enough cells	0.64	7312
EYA4 (EYA transcriptional coactivator and phosphatase 4)	0.16	migration z between -2 and 2; enough cells	0.84	3851
FGGY (FGGY carbohydrate kinase domain containing)	-0.1	migration z between -2 and 2; enough cells	0.86	8081
SAMTOR (S-adenosylmethionine sensor upstream of mTORC1)	-1.76	migration z between -2 and 2; enough cells	0.43	3978
CALCB (calcitonin related polypeptide beta)	-0.83	migration z between -2 and 2; enough cells	0.64	5740
TMPRSS11A (transmembrane serine protease 11A)	0.36	migration z between -2 and 2; enough cells	0.87	5544
SCN7A (sodium voltage-gated channel alpha subunit 7)	-0.46	migration z between -2 and 2; enough cells	0.72	7066
CLBA1 (clathrin binding box of aftiphilin containing 1)	-0.7	migration z between -2 and 2; enough cells	0.7	6973
SFTPD (surfactant protein D)	-0.1	migration z between -2 and 2; enough cells	0.86	4818
ATG2A (autophagy related 2A)	-0.16	migration z between -2 and 2; enough cells	0.84	5760
RTEL1 (regulator of telomere elongation helicase 1)	-0.68	migration z between -2 and 2; enough cells	0.71	7440
C1orf115 (chromosome 1 open reading frame 115)	-0.99	migration z between -2 and 2; enough cells	0.63	5329
H1-3 (H1.3 linker histone, cluster member)	1.1	migration z between -2 and 2; enough cells	1.18	6002
OTX1 (orthodenticle homeobox 1)	0.55	migration z between -2 and 2; enough cells	0.91	5615
PF4V1 (platelet factor 4 variant 1)	0.43	migration z between -2 and 2; enough cells	1	5284
NEUROG2 (neurogenin 2)	1.15	migration z between -2 and 2; enough cells	1.19	7480
TENT2 (terminal nucleotidyltransferase 2)	1.94	migration z between -2 and 2; enough cells	1.39	6323
AMBN (ameloblastin)	0.31	migration z between -2 and 2; enough cells	0.96	5567
RAPGEF4 (Rap guanine nucleotide exchange factor 4)	1.44	migration z between -2 and 2; enough cells	1.26	5757
CAP2 (cyclase associated actin cytoskeleton regulatory protein 2)	0.08	migration z between -2 and 2; enough cells	0.91	5616
CBARP (CACN subunit beta associated regulatory protein)	-0.24	migration z between -2 and 2; enough cells	0.82	5570
MRTO4 (MRT4 homolog, ribosome maturation factor)	1.11	migration z between -2 and 2; enough cells	1.17	6555
NFATC2 (nuclear factor of activated T cells 2)	-1.04	migration z between -2 and 2; enough cells	0.6	5752
KIF9 (kinesin family member 9)	0.49	migration z between -2 and 2; enough cells	0.9	6026
HNRNPA0 (heterogeneous nuclear ribonucleoprotein A0)	0.83	migration z between -2 and 2; enough cells	1.1	5252
C4orf50 (chromosome 4 open reading frame 50)	-0.78	migration z between -2 and 2; enough cells	0.68	5892
ACAA1 (acetyl-CoA acyltransferase 1)	0.08	migration z between -2 and 2; enough cells	0.82	5812
EED (embryonic ectoderm development)	-0.73	migration z between -2 and 2; enough cells	0.66	5159
CAPNS1 (calpain small subunit 1)	-0.52	migration z between -2 and 2; enough cells	0.7	5275
JAM2 (junctional adhesion molecule 2)	0.38	migration z between -2 and 2; enough cells	0.98	5652
MRPL35 (mitochondrial ribosomal protein L35)	-0.62	migration z between -2 and 2; enough cells	0.73	5062
ODR4 (odr-4 GPCR localization factor homolog)	-0.22	migration z between -2 and 2; enough cells	0.82	5474
KCNA10 (potassium voltage-gated channel subfamily A member 10)	0.5	migration z between -2 and 2; enough cells	0.9	6132
IL15 (interleukin 15)	-1.25	migration z between -2 and 2; enough cells	0.56	6287
CAPN2 (calpain 2)	-1.33	migration z between -2 and 2; enough cells	0.55	5442
DDIT4 (DNA damage inducible transcript 4)	0.51	migration z between -2 and 2; enough cells	1.01	6790
IRF9 (interferon regulatory factor 9)	0.65	migration z between -2 and 2; enough cells	0.93	5876
MYPOP (Myb related transcription factor, partner of profilin)	0.47	migration z between -2 and 2; enough cells	1.01	5434
FASN (fatty acid synthase)	-0.5	migration z between -2 and 2; enough cells	0.71	3633
SLC26A8	-2.4	under 3300 nuclei; migration not judged	0.26	1902
RIC3 (RIC3 acetylcholine receptor chaperone)	0.71	migration z between -2 and 2; enough cells	1.07	5620
COMMD3 (COMM domain containing 3)	-0.36	migration z between -2 and 2; enough cells	0.74	3628
PHOX2B (paired like homeobox 2B)	-0.7	migration z between -2 and 2; enough cells	0.7	5943
TSHB (thyroid stimulating hormone subunit beta)	-1.78	migration z between -2 and 2; enough cells	0.42	5978
MTMR7 (myotubularin related protein 7)	-0.68	migration z between -2 and 2; enough cells	0.68	4872
NEDD9	-2.94	under 3300 nuclei; migration not judged	0.12	3010
ATL1 (atlastin GTPase 1)	0.57	migration z between -2 and 2; enough cells	0.92	3983
CRACR2B (calcium release activated channel regulator 2B)	-1.98	migration z between -2 and 2; enough cells	0.38	5069
GLRA3 (glycine receptor alpha 3)	1.12	migration z between -2 and 2; enough cells	1.02	4632

Sorted by “migration relative to mock” (high to low): some entries from above
Gene	migration robust z-score	migration class with cell-count check	migration relative to mock	nuclei per well, duplicate mean
RIC3 (RIC3 acetylcholine receptor chaperone)	0.71	migration z between -2 and 2; enough cells	1.07	5620
COMMD3 (COMM domain containing 3)	-0.36	migration z between -2 and 2; enough cells	0.74	3628
PHOX2B (paired like homeobox 2B)	-0.7	migration z between -2 and 2; enough cells	0.7	5943
MTMR7 (myotubularin related protein 7)	-0.68	migration z between -2 and 2; enough cells	0.68	4872
TSHB (thyroid stimulating hormone subunit beta)	-1.78	migration z between -2 and 2; enough cells	0.42	5978
NEDD9	-2.94	under 3300 nuclei; migration not judged	0.12	3010
